In US20030166014A1:
These are yes or no findings as the source states them, for the method shown. Some results given as binding are weak or reduced against the parent protein; the word gives no strength.

Amino acid sequences for entries named in this document (tags omitted). A change or cut given only in a name is not applied to a line headed by its entry. Chains listed by the source or under a name are the forms on record and can include a tag or linker.
recombinant peritoneal Hp (rpHp) 2-2 (P00738, form named): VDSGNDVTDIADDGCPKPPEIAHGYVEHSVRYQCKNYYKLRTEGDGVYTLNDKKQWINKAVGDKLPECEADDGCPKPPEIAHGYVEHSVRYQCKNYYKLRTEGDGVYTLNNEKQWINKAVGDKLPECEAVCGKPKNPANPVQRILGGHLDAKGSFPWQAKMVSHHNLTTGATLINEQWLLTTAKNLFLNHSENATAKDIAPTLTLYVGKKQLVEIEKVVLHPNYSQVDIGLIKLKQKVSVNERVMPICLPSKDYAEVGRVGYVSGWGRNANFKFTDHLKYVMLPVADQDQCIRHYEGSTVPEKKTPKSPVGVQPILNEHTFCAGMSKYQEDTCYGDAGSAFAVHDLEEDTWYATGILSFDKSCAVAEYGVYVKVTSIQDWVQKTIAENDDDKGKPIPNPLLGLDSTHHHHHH

Key:
[1] = biological target: T1, Lotus tetragonolobus lectin (LTL) (Lotus tetragonolobus) (UniProt P19664); test: lectin binding studies (ELISA and blotting), compared with sHp
T1 sequence (looked up): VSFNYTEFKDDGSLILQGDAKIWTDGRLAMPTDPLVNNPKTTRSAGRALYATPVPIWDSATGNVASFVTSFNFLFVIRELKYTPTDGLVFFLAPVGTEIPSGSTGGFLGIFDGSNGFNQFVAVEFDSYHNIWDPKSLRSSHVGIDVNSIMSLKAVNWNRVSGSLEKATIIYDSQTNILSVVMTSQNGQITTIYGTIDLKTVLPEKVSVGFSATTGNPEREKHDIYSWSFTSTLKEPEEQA

[2] = biological target: T1, Lotus tetragonolobus lectin (LTL) (Lotus tetragonolobus); test: lectin ELISA
[3] = biological target: T1, Lotus tetragonolobus lectin (LTL) (Lotus tetragonolobus); test: lectin-blotting analysis

Measured: binding

recombinant peritoneal Hp (rpHp) 2-2 (from UniProt P00738 19-406)
binds: all assays above
